Source: patent publication US7642085B2, “Protein arrays” (priority 2002, dated 2010)
Some of these results come from one statement about several compounds together.

System: E. coli strain deficient in lysine biosynthesis
Test: uptake of unnatural amino acids as Unn-Lys / Lys-Unn dipeptides: growth on lysine minimal media
Type: cell-based
Conditions: unnatural amino acid given as Unn-Lys or Lys-Unn dipeptide, the only source of lysine

Row | Compound | dipeptide concentration at which growth was observed [mM]
1 | O=C(O)[C@@](F)(N(F)c1ccccc1)C(F)(F)F [pentafluorophenylalanine] | ≥ 10
2 | caged serine | ≥ 10
3 | N[C@@H](Cc1ccc(OP(=O)(O)O)cc1)C(=O)O [phosphonotyrosine] | ≥ 10
4 | N[C@@H](COP(=O)(O)O)C(=O)O [phosphonoserine] | ≥ 10
